The source of these data is the supplement of paper PMC10060354, “Discovery of a small molecule ligand of FRS2 that inhibits invasion and tumor growth” (Cellular Oncology, 2022).

The chains behind the UniProt entries cited, without tags or fusion partners. Where a name states a change or a piece, a line headed by the entry shows the natural chain unless it says otherwise.
UniProt Q9NYS0: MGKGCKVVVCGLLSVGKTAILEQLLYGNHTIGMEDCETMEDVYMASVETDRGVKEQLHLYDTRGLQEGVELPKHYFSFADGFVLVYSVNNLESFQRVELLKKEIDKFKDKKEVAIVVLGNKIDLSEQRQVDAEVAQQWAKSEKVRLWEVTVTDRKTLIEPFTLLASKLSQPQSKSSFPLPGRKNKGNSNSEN
UniProt O43324: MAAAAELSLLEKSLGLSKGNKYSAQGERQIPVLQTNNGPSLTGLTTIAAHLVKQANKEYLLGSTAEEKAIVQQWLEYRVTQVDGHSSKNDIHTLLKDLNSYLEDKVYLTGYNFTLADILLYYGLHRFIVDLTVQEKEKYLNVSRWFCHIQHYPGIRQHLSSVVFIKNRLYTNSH
UniProt Q9NZJ4: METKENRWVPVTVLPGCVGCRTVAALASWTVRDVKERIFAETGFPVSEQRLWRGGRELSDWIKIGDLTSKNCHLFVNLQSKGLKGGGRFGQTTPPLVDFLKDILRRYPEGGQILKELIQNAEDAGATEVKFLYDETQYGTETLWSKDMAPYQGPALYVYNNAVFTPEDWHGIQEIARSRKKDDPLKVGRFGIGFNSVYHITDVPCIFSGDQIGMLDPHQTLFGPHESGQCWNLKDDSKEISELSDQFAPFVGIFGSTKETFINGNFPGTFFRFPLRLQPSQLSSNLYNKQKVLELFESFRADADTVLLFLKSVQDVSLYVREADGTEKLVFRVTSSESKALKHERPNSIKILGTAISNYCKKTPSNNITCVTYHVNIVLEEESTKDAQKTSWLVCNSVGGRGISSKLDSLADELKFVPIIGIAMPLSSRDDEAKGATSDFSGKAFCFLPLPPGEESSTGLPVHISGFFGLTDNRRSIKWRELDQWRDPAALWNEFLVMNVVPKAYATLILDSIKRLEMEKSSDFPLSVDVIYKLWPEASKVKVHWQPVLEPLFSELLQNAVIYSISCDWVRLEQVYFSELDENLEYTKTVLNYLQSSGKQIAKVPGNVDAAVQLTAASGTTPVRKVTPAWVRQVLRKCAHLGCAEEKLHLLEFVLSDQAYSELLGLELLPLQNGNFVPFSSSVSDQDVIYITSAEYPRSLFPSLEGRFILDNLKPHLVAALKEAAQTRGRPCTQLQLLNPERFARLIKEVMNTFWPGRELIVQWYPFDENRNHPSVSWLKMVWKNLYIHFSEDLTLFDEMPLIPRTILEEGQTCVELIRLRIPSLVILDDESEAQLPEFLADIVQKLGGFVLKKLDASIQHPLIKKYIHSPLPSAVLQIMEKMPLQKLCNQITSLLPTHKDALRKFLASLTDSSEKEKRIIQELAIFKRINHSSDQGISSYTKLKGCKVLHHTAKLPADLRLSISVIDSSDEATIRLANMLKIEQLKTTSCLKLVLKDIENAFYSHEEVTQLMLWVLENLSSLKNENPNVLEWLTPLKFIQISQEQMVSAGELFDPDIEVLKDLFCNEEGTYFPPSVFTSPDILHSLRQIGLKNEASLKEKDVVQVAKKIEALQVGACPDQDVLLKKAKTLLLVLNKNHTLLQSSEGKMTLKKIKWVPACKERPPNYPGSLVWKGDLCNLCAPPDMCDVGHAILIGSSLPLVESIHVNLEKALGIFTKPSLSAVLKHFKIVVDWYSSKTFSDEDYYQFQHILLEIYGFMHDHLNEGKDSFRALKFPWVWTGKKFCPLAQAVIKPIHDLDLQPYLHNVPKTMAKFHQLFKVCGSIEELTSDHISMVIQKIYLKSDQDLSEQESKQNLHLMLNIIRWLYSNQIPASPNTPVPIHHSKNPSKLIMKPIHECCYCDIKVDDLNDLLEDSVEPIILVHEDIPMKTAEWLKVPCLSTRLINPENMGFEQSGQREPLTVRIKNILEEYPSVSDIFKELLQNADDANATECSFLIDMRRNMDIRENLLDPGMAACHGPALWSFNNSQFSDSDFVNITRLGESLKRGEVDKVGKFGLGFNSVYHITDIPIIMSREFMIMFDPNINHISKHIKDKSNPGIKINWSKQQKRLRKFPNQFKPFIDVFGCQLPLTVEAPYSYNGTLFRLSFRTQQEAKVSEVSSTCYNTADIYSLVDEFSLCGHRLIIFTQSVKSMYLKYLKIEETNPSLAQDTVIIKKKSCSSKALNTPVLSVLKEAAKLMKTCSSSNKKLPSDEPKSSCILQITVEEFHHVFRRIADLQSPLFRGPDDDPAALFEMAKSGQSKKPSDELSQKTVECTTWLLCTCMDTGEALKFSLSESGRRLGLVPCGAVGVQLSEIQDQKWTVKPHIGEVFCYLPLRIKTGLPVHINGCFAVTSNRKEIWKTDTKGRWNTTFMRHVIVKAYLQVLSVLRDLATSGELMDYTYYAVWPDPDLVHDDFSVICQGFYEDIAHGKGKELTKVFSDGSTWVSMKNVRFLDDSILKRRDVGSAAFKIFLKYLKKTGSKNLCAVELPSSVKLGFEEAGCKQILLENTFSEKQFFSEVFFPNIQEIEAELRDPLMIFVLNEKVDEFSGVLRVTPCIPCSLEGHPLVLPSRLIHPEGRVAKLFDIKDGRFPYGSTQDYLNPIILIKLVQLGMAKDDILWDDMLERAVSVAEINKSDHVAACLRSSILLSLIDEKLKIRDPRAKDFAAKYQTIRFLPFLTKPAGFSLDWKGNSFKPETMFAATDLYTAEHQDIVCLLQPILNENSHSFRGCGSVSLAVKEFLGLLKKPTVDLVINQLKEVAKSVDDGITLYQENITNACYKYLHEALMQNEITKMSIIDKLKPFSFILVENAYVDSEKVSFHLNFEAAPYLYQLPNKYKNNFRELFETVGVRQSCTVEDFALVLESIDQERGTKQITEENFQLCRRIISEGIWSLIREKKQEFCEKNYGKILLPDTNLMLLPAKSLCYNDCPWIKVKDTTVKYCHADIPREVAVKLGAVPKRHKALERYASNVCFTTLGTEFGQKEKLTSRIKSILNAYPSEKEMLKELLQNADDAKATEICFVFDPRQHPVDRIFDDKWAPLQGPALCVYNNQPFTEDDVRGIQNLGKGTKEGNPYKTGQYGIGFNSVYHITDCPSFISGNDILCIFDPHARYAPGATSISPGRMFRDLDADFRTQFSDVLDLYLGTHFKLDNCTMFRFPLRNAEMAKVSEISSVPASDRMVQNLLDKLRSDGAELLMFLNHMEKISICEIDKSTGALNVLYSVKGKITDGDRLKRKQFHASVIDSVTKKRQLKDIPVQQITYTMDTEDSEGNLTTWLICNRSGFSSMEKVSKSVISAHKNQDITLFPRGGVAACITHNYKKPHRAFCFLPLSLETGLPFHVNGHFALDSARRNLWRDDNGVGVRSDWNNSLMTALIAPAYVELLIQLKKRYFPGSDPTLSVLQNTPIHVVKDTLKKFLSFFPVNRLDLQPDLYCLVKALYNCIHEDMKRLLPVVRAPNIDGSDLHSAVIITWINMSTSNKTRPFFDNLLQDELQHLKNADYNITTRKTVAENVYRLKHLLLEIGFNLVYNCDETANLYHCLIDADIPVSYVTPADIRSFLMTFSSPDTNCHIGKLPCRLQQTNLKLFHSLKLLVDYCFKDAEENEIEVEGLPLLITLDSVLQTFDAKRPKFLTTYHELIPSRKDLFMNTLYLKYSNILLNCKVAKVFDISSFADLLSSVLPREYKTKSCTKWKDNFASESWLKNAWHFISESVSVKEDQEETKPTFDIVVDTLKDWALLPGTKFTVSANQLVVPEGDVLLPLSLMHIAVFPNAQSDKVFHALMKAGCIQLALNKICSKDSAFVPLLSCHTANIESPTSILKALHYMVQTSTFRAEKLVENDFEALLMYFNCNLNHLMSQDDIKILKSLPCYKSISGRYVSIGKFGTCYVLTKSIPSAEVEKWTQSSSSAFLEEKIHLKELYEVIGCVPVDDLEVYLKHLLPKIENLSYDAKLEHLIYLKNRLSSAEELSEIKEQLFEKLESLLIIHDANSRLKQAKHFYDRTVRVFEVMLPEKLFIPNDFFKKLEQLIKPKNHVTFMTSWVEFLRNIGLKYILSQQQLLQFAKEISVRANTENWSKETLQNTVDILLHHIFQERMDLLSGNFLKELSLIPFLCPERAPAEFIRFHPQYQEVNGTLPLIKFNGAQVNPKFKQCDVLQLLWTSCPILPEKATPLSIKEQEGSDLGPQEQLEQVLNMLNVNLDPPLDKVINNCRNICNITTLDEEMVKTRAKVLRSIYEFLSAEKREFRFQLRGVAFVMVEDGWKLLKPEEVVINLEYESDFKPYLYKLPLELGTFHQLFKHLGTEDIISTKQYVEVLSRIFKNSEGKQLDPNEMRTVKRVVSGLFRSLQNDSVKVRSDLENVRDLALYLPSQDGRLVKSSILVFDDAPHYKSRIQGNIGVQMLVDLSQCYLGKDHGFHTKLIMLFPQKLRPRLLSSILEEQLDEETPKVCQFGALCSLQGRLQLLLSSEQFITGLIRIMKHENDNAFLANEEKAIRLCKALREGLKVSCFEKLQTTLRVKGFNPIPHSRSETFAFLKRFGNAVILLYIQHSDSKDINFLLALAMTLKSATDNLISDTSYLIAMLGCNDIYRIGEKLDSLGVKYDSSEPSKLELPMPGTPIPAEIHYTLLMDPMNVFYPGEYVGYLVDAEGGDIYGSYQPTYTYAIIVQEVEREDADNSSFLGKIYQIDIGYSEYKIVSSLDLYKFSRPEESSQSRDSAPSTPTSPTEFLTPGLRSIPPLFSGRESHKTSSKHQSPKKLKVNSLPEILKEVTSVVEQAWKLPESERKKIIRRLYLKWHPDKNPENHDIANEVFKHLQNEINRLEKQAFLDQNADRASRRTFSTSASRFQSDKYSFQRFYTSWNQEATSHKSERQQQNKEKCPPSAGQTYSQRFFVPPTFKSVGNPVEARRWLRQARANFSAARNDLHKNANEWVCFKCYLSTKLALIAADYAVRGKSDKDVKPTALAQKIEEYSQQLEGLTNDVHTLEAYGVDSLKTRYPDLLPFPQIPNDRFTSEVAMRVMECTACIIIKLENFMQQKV
UniProt Q05193: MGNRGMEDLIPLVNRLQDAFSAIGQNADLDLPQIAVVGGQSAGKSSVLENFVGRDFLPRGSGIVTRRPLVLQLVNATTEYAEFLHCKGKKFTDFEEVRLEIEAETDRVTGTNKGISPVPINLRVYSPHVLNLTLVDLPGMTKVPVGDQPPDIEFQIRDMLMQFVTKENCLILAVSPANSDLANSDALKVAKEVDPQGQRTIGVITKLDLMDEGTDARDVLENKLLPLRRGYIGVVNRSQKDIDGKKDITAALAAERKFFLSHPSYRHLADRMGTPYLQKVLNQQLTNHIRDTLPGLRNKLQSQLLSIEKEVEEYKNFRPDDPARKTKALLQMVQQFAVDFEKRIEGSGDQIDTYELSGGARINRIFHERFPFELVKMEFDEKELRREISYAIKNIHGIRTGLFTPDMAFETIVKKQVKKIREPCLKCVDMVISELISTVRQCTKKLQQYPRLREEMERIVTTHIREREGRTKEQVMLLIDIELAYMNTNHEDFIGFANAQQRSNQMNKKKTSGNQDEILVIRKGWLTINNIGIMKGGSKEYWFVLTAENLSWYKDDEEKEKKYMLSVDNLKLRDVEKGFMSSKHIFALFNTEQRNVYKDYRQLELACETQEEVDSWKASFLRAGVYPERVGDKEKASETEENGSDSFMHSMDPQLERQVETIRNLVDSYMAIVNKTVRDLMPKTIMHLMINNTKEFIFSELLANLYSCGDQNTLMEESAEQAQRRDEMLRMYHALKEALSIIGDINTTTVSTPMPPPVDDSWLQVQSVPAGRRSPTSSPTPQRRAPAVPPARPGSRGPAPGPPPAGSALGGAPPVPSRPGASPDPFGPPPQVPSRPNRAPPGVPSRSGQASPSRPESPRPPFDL
UniProt P36542: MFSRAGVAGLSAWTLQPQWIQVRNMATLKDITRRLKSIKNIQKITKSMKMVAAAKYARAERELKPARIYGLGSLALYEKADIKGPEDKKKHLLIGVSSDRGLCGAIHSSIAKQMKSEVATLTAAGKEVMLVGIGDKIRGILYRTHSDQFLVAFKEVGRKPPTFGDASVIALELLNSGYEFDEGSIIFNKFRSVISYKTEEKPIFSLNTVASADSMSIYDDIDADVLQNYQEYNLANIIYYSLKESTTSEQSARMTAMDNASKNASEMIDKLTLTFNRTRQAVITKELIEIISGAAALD
UniProt O95396: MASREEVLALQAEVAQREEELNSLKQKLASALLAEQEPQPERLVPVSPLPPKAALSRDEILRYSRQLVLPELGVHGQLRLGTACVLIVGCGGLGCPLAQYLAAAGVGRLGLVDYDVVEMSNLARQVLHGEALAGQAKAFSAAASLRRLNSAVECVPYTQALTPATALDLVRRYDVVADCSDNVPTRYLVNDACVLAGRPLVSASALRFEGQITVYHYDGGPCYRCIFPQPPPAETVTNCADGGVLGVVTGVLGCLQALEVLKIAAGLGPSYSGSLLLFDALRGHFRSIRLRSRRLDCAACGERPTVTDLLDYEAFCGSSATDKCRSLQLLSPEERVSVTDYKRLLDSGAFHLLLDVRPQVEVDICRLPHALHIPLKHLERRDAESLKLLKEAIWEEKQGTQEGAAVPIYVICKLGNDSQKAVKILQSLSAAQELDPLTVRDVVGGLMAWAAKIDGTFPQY

Single values are uncertain, as repeats are few or missing.

Compound in this test: [O-][N+](C(C1=C(C(O)=C2)NC(C(C=C3)=CC=C3Cl)C4C1C=CC4)=C2Cl)=O
The test can be described thus: melting temperature shift (compound 7 minus DMSO); higher = compound stabilises the protein. The settings on record: 10 µM. Here is the method:
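Thermal proteome profiling (TMT mass spectrometry) in intact DAOY medulloblastoma cells or DAOY lysates treated with 10 µM compound 7 or DMSO, heated at 10 temperatures from 40.5 to 73.8 °C for 3 min. Melting curves were fitted with the Bioconductor TPP package, and the melting point difference between compound and vehicle is reported per protein (single curve per condition).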

Setting [1] is: system: DAOY cell lysate, treatment time: 20 min, 4 °C.
Setting [2] is: system: intact DAOY cells, treatment time: 90 min, 37 °C.

Regarding HSDL1 (UniProt Q3SXM5), the melting temperature shift reads like this: under setting [1], 1.04 °C; under setting [2], 0.852 °C.

Consider UniProt Q96GJ1, for which, under setting [1], the melting temperature shift is -1.18 °C.

Regarding UniProt O94851, the melting temperature shift is, setting by setting: under setting [1], -0.216 °C; under setting [2], -0.502 °C.

UniProt Q8TEQ0: the melting temperature shift under setting [1] turned out to be 0.284 °C.

With PI4K2A (UniProt Q9BTU6), the melting temperature shift was -0.668 °C under setting [1] and -0.207 °C under setting [2].

Regarding DMD (UniProt P11532), the melting temperature shift was -1.41 °C under setting [1] and 0.622 °C under setting [2].

Consider EPHB2 (UniProt P29323), for which the melting temperature shift runs as follows: under setting [1], 1.12 °C; under setting [2], -0.239 °C.

Turning to OAT (UniProt P04181), the melting temperature shift is -0.379 °C under setting [1] and -1.28 °C under setting [2].

As for MYO6 (UniProt Q9UM54), the melting temperature shift reads like this: under setting [1], -0.0726 °C; under setting [2], -0.845 °C.

Consider USO1 (UniProt O60763), for which the melting temperature shift is -0.0782 °C under setting [1] and -0.573 °C under setting [2].

In the case of RRP1 (UniProt P56182), the melting temperature shift turned out to be 0.811 °C under setting [1] and 3.08 °C under setting [2].

For the target TRIOBP (UniProt Q9H2D6), the melting temperature shift under setting [1] is -1.15 °C.

For APPL2 (UniProt Q8NEU8), the melting temperature shift by setting is: under setting [1], 0.822 °C; under setting [2], -0.341 °C.

On to ALDOC (UniProt P09972), for which the melting temperature shift reads like this: under setting [1], -0.832 °C; under setting [2], 0.425 °C.

UniProt Q99417: the melting temperature shift under setting [1] was 0.713 °C.

With UniProt Q8N1G0, the melting temperature shift was 0.34 °C under setting [1] and -0.482 °C under setting [2].

For the target PGK1 (UniProt P00558), the melting temperature shift reads like this: under setting [1], -0.277 °C; under setting [2], -0.475 °C.

Turning to PEX6 (UniProt Q13608), the melting temperature shift stood at 0.122 °C under setting [1] and 0.879 °C under setting [2].

With UniProt P48730, the melting temperature shift under setting [1] is -0.565 °C and the melting temperature shift under setting [2] was -0.549 °C.

For UniProt Q96PC3, the melting temperature shift under setting [2] is -0.554 °C.

In the case of UniProt P84022, the melting temperature shift under setting [1] is 0.205 °C and the melting temperature shift under setting [2] is -0.134 °C.

NKIRAS1 (UniProt Q9NYS0): the melting temperature shift is -1.24 °C under setting [1] and -2.19 °C under setting [2].

For AP1G1 (UniProt O43747), the melting temperature shift was -0.364 °C under setting [1] and 0.019 °C under setting [2].

For KPNB1 (UniProt Q14974), the melting temperature shift runs as follows: under setting [1], -0.0537 °C; under setting [2], 0.0097 °C.

In the case of ARHGDIA (UniProt P52565), the melting temperature shift under setting [1] was -1.19 °C and the melting temperature shift under setting [2] came out at 0.404 °C.

On to EEF1E1 (UniProt O43324), for which the melting temperature shift is, setting by setting: under setting [1], -0.64 °C; under setting [2], -1.12 °C.

For GOLGA1 (UniProt Q92805), the melting temperature shift is -0.0838 °C under setting [1] and -2.59 °C under setting [2].

As to GEMIN2 (UniProt O14893), the melting temperature shift under setting [1] was -1.1 °C and the melting temperature shift under setting [2] was determined as 1.14 °C.

On to SACS (UniProt Q9NZJ4), for which the melting temperature shift is, setting by setting: under setting [1], 0.869 °C; under setting [2], 1.31 °C.

For ACSL3 (UniProt O95573), the melting temperature shift under setting [1] was determined as 0.941 °C and the melting temperature shift under setting [2] is -1.17 °C.

For SNRPD3 (UniProt P62318), the melting temperature shift is, setting by setting: under setting [1], -0.415 °C; under setting [2], 0.57 °C.

NCBP1 (UniProt Q09161): the melting temperature shift is -0.845 °C under setting [1] and -0.168 °C under setting [2].

As to FMR1 (UniProt Q06787), the melting temperature shift reads like this: under setting [1], 0.146 °C; under setting [2], -0.339 °C.

For the target SETDB1 (UniProt Q15047), the melting temperature shift reads like this: under setting [1], -0.828 °C; under setting [2], -0.471 °C.

As for DOHH (UniProt Q9BU89), the melting temperature shift under setting [1] was -1.29 °C and the melting temperature shift under setting [2] was 2.81 °C.

Consider UniProt Q58FF7, for which the melting temperature shift under setting [2] was -0.393 °C.

As to AKAP8 (UniProt O43823), the melting temperature shift was 0.208 °C under setting [1] and -0.433 °C under setting [2].

In the case of P0DI82 (UniProt P0DI81), the melting temperature shift under setting [1] is -1.05 °C.

For the target UQCRQ (UniProt O14949), the melting temperature shift came to 2.59 °C under setting [1] and 0.9 °C under setting [2].

For NAT10 (UniProt Q9H0A0), the melting temperature shift runs as follows: under setting [1], 1.02 °C; under setting [2], 0.348 °C.

UniProt P98175: the melting temperature shift is 0.304 °C under setting [1] and -1.25 °C under setting [2].

With TCP11L1 (UniProt Q9NUJ3), the melting temperature shift is, setting by setting: under setting [1], 0.765 °C; under setting [2], -0.663 °C.

As for UniProt Q8N9V7, the melting temperature shift under setting [2] is -0.488 °C.

As for NUCB1 (UniProt Q02818), the melting temperature shift under setting [1] is 0.685 °C.

For UniProt Q9BRR8, under setting [1], the melting temperature shift is -0.682 °C.

Consider UniProt Q05193, for which the melting temperature shift was 0.448 °C under setting [1] and -0.258 °C under setting [2].

Consider BAIAP2 (UniProt Q9UQB8), for which the melting temperature shift by setting is: under setting [1], 0.0987 °C; under setting [2], -0.538 °C.

Turning to SSBP1 (UniProt Q04837), under setting [1], the melting temperature shift is -3.73 °C.

In the case of TBC1D13 (UniProt Q9NVG8), the melting temperature shift under setting [1] was -1.42 °C and the melting temperature shift under setting [2] was determined as 0.245 °C.

Regarding PHLDB1 (UniProt Q86UU1), the melting temperature shift is 0.281 °C under setting [1] and -2.18 °C under setting [2].

Regarding UniProt Q9BRV8, the melting temperature shift under setting [1] is -0.0199 °C.

For GABARAPL2 (UniProt P60520), the melting temperature shift by setting is: under setting [1], -0.699 °C; under setting [2], 0.152 °C.

For IVD (UniProt P26440), the melting temperature shift under setting [1] was found to be 0.163 °C and the melting temperature shift under setting [2] was -0.954 °C.

NUDCD2 (UniProt Q8WVJ2): the melting temperature shift was 0.683 °C under setting [1] and -0.117 °C under setting [2].

Take UniProt Q8IWE5: the melting temperature shift under setting [2] was -3.22 °C.

For ATP5C1 (UniProt P36542), the melting temperature shift runs as follows: under setting [1], 1.96 °C; under setting [2], -1.67 °C.

On to SHC1 (UniProt P29353), for which the melting temperature shift is -0.0622 °C under setting [1] and 0.731 °C under setting [2].

Consider UniProt P78395, for which, under setting [1], the melting temperature shift amounted to 0.992 °C.

Turning to UniProt Q96EK4, the melting temperature shift under setting [1] was -1.48 °C.

As to MOCS3 (UniProt O95396), the melting temperature shift under setting [1] was -1.09 °C.

With UniProt P15882, under setting [1], the melting temperature shift is -0.273 °C.

In the case of UniProt Q6UX15, the melting temperature shift under setting [1] is -4.79 °C.

For the target NCOR1 (UniProt O75376), the melting temperature shift reads like this: under setting [1], -1.23 °C; under setting [2], 1.54 °C.

As to UAP1 (UniProt Q16222), the melting temperature shift is -0.331 °C under setting [1] and -0.398 °C under setting [2].

As to RAB5B (UniProt P61020), the melting temperature shift is, setting by setting: under setting [1], -0.305 °C; under setting [2], -0.601 °C.

Take UniProt Q9H4E7: under setting [1], the melting temperature shift is -2.8 °C.

As to PLD1 (UniProt Q13393), the melting temperature shift under setting [1] was found to be 2.92 °C.

With UniProt P17612, the melting temperature shift under setting [1] was -0.143 °C and the melting temperature shift under setting [2] is -0.056 °C.
